According to the supplement of paper PMC12819154, “High-throughput peptide-centric local stability assay extends protein–ligand identification to membrane proteins, tissues and bacteria” (Nature Structural & Molecular Biology, 2025):
Some of the results follow. Most values lie at the level of the controls, where differences are scatter.

Protein sequences, listed by entry. Tags and fused reporters are not part of them. Lines headed by an entry give the natural chain unless they say otherwise; changes in a name come on top.
UniProt Q9UHD2: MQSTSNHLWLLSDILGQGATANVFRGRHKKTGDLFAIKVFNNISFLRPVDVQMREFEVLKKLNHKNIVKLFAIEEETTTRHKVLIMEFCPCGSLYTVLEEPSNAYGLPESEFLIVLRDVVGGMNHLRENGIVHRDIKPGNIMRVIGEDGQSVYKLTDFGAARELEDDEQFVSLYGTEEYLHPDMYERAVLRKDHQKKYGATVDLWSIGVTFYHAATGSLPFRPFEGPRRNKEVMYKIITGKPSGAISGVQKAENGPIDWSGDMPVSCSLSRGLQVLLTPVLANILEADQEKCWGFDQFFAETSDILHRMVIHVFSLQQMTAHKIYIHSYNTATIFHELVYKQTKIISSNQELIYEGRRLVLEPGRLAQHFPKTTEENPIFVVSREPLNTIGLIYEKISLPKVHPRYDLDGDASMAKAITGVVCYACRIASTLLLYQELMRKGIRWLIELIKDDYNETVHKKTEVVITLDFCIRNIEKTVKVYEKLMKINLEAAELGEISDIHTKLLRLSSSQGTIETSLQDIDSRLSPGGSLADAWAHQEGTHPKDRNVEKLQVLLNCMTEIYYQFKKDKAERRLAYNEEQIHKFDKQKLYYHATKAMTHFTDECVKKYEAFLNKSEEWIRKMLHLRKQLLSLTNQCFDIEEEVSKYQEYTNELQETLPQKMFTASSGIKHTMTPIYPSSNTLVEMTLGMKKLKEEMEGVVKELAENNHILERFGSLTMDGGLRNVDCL
UniProt Q9UL45: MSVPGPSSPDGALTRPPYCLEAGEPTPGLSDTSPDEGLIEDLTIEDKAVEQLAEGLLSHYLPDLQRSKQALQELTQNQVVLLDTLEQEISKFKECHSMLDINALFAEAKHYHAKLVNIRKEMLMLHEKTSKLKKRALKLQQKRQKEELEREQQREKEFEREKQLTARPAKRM
UniProt Q9UQE7: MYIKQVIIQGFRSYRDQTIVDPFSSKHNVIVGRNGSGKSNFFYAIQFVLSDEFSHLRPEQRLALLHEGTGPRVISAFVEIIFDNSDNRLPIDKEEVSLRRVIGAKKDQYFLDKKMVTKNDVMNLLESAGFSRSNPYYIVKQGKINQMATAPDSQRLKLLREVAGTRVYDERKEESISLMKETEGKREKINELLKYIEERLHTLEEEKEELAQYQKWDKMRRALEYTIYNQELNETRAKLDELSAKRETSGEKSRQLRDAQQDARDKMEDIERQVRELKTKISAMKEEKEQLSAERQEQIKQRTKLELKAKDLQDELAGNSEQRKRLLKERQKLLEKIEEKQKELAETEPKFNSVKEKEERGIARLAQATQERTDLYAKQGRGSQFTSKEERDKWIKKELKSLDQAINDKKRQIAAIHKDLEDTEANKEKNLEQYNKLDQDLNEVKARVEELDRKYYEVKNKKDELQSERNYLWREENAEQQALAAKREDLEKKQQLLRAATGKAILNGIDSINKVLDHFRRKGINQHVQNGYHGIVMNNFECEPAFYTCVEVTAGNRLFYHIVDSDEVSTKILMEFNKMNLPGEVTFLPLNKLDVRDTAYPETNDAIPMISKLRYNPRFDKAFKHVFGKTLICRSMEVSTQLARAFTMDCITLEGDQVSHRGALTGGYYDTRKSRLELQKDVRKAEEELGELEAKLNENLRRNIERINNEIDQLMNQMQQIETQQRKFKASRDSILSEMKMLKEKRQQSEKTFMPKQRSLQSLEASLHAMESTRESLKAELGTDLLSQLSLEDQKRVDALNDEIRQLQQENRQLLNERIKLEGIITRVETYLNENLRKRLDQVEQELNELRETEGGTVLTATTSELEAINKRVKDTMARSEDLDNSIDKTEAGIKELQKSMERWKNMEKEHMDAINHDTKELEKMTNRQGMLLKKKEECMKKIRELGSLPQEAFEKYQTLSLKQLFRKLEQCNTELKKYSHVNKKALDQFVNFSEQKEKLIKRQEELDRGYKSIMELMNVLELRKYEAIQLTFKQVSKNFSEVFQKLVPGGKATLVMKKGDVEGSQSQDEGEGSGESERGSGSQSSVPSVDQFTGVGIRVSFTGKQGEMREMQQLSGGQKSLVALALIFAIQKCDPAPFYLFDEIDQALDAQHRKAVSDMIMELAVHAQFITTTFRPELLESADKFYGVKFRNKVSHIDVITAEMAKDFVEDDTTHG
UniProt Q9UJM8: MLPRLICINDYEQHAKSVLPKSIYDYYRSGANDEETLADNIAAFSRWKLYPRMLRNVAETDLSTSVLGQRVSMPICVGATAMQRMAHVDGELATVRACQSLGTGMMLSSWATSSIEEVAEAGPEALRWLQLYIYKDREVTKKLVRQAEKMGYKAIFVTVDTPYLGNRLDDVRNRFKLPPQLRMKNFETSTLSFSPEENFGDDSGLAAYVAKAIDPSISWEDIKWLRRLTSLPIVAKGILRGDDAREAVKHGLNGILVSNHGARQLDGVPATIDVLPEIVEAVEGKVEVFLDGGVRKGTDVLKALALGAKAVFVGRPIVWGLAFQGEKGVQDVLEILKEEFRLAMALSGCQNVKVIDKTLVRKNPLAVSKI
UniProt Q9UP83: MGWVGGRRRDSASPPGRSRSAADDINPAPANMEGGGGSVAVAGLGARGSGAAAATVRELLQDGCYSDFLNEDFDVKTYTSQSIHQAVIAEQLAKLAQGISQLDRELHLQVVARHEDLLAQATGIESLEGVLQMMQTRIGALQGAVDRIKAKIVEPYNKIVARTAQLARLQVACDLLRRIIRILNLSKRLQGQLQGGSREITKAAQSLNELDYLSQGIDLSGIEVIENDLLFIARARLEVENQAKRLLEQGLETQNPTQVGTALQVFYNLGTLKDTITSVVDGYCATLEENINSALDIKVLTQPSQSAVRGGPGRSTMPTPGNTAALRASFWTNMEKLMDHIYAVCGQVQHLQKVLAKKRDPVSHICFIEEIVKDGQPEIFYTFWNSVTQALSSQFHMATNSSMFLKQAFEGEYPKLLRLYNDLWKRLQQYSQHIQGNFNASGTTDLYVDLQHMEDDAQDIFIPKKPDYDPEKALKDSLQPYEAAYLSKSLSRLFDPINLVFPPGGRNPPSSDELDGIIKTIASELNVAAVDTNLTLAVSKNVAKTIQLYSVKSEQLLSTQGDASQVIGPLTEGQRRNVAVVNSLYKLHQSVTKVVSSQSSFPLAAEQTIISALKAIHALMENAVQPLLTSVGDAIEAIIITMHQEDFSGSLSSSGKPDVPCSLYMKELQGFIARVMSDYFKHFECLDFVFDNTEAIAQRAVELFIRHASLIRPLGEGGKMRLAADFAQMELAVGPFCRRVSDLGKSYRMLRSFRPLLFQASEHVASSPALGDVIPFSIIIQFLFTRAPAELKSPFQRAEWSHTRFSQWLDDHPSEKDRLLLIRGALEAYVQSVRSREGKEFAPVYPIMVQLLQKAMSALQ
UniProt Q9UNS2: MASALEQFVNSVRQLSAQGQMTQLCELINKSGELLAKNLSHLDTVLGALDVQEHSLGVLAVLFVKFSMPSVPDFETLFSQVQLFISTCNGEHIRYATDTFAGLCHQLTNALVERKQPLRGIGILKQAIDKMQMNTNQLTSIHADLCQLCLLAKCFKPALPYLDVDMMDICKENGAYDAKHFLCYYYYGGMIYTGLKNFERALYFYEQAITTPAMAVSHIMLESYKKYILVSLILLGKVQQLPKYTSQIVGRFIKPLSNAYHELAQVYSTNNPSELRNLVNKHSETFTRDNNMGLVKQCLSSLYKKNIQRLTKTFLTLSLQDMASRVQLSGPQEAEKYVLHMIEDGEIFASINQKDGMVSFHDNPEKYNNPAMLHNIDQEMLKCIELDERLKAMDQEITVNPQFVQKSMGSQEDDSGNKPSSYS
UniProt Q9UNW1: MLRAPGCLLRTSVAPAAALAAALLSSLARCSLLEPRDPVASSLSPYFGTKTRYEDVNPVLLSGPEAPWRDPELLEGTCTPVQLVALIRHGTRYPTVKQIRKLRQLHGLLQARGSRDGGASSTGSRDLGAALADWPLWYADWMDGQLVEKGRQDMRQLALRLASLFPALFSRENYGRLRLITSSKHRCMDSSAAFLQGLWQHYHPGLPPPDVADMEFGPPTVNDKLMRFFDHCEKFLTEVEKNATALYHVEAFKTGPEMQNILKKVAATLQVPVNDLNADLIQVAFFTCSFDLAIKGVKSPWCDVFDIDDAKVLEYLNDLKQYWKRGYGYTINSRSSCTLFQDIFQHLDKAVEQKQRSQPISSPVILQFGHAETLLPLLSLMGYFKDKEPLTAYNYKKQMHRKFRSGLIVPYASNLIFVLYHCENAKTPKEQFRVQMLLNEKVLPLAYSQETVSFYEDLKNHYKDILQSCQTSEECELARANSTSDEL
UniProt Q9UQR0: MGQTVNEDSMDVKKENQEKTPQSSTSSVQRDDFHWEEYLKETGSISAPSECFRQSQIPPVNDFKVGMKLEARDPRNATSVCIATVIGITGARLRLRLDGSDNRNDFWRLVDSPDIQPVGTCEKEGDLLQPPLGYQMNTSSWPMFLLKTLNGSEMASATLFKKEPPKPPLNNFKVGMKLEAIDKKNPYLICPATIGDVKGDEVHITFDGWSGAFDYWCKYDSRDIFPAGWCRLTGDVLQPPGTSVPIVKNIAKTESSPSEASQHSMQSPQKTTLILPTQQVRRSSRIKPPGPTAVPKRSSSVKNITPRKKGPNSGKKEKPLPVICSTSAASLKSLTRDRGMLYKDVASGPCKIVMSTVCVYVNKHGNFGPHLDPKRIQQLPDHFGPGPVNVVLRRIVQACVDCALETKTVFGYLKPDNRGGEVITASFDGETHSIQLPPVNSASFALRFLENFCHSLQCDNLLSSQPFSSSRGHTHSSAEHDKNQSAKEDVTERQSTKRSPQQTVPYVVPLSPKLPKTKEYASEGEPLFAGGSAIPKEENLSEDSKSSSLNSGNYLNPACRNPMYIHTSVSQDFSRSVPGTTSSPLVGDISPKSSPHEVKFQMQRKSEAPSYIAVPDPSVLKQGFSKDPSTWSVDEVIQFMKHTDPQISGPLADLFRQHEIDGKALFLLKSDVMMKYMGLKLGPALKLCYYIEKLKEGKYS
UniProt Q9UNH7: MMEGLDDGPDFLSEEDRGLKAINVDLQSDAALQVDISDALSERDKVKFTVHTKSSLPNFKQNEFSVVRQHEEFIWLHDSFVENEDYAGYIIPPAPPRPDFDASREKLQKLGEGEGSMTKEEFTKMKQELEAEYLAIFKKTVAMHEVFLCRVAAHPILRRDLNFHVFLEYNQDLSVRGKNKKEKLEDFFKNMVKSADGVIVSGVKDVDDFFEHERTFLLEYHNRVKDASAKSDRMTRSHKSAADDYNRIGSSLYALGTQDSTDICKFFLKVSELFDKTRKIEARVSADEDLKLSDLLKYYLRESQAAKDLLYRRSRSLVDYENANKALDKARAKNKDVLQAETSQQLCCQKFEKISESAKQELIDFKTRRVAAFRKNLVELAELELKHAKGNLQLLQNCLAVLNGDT
UniProt Q9UIA9: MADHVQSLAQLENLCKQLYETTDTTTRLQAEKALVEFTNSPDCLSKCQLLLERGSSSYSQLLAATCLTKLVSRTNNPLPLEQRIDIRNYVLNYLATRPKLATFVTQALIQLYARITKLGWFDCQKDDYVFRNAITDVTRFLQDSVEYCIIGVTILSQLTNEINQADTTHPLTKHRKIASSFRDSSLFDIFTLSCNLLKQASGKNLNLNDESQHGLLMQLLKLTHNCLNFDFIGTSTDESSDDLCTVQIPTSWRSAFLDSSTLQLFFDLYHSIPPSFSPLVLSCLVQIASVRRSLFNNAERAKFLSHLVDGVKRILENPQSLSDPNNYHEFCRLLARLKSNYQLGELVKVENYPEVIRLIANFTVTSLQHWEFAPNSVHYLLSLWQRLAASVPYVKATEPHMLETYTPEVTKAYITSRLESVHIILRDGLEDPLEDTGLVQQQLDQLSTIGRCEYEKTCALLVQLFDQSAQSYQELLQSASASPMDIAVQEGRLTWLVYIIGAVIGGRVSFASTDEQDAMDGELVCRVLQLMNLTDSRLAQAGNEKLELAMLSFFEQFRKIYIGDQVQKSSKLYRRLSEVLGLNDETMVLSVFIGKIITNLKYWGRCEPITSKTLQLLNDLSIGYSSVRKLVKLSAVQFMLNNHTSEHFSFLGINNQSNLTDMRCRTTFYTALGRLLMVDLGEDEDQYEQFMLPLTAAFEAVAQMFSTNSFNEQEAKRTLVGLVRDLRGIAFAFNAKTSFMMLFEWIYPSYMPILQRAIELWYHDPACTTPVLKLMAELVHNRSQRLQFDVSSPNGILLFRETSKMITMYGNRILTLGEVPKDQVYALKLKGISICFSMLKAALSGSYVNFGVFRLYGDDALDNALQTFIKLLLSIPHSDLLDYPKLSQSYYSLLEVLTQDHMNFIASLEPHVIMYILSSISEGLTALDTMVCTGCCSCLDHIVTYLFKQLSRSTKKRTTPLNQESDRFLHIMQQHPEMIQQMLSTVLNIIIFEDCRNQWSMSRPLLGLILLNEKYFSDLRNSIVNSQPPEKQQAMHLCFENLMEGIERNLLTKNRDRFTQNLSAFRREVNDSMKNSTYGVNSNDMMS

These targets were tested with Cc1nc(Nc2ncc(C(=O)Nc3c(C)cccc3Cl)s2)cc(N2CCN(CCO)CC2)n1 [dasatinib] (assay: log2 fold change of tryptic peptide abundance, ligand vs vehicle (limited proteolysis) (log2 ratio); higher = more trypsin-susceptible (destabilized)). Conditions: ligand concentration: 5 uM; sample: K562 cleared lysate.

Target | log2 fold change
PRELID1 (peptide sequence: GFEYILAK, peptide start residue: 161) (UniProt Q9Y255) | -0.411
TBK1 (peptide sequence: AITGVVCYACR, peptide start residue: 417) (UniProt Q9UHD2) | 0.308
NFU1 (peptide sequence: TMDFPTPAAAFR, peptide start residue: 85) (UniProt Q9UMS0) | -1.1
BLOC1S6 (peptide sequence: FKECHSMLDINALFAEAK, peptide start residue: 92) (UniProt Q9UL45) | 0.417
SMC3 (peptide sequence: LHTLEEEKEELAQYQKWDK, peptide start residue: 200) (UniProt Q9UQE7) | 0.202
UniProt Q9UHH9 (peptide sequence: FNETTLCKPLVPR, peptide start residue: 35) | 0.23
PPM1H (peptide sequence: RLPWATGYAEVINAGK, peptide start residue: 73) (UniProt Q9ULR3) | -0.557
ANAPC10 (peptide sequence: CTTIDFMMYR, peptide start residue: 173) (UniProt Q9UM13) | 0.0401
BCAP29 (peptide sequence: LVEDQEKLK, peptide start residue: 180) (UniProt Q9UHQ4) | -0.342
PYCARD (peptide sequence: VLTDEQYQAVR, peptide start residue: 140) (UniProt Q9ULZ3) | -0.144
PLAA (peptide sequence: TMNIYFPK, peptide start residue: 530) (UniProt Q9Y263) | -0.241
DNPEP (peptide sequence: LLQAGFSELK, peptide start residue: 52) (UniProt Q9ULA0) | 0.255
UniProt Q9UJM8 (peptide sequence: ALALGAK, peptide start residue: 289) | -0.0175
CASP8AP2 (peptide sequence: DVHHSTSLPNLEK, peptide start residue: 188) (UniProt Q9UKL3) | 0.449
COG5 (peptide sequence: IGALQGAVDR, peptide start residue: 138) (UniProt Q9UP83) | -0.177
VANGL2 (peptide sequence: RLQEEEQK, peptide start residue: 372) (UniProt Q9ULK5) | -0.133
SARDH (peptide sequence: EALEQQR, peptide start residue: 926) (UniProt Q9UL12) | -0.00521
YEATS2 (peptide sequence: LSNNMEQRPSR, peptide start residue: 165) (UniProt Q9ULM3) | -0.2
COPS3 (peptide sequence: YTSQIVGR, peptide start residue: 244) (UniProt Q9UNS2) | -0.197

A different layout for part of the listing above.
Target	log2 fold change
DNPEP (peptide sequence: LLQAGFSELK, peptide start residue: 52) (UniProt Q9ULA0)	0.255
UniProt Q9UJM8 (peptide sequence: ALALGAK, peptide start residue: 289)	-0.0175
VANGL2 (peptide sequence: RLQEEEQK, peptide start residue: 372) (UniProt Q9ULK5)	-0.133

More results follow:

Target | log2 fold change
STX8 (peptide sequence: GLGFDEIR, peptide start residue: 134) (UniProt Q9UNK0) | 0.114
NUDT5 (peptide sequence: TTYMDPTGK, peptide start residue: 34) (UniProt Q9UKK9) | 0.0683
SLC12A4 (peptide sequence: TLMMEQR, peptide start residue: 926) (UniProt Q9UP95) | -0.0745
MTMR6 (peptide sequence: YMYVMDTRPK, peptide start residue: 233) (UniProt Q9Y217) | 0.498
CDV3 (peptide sequence: DEDEWKELEQK, peptide start residue: 81) (UniProt Q9UKY7) | 0.289
RAB22A (peptide sequence: VCLLGDTGVGK, peptide start residue: 8) (UniProt Q9UL26) | -0.676
CPSF3 (peptide sequence: VMGFLADK, peptide start residue: 466) (UniProt Q9UKF6) | -0.131
MINPP1 (peptide sequence: LASLFPALFSR, peptide start residue: 161) (UniProt Q9UNW1) | 0.489
NOL7 (peptide sequence: KLLPDTILEK, peptide start residue: 112) (UniProt Q9UMY1) | -0.31
GTF3C4 (peptide sequence: CFLTYQSCQSLIYRR, peptide start residue: 773) (UniProt Q9UKN8) | 0.225
NOB1 (peptide sequence: EVVTEIRDK, peptide start residue: 32) (UniProt Q9ULX3) | -0.167
SCML2 (peptide sequence: NPMYIHTSVSQDFSR, peptide start residue: 561) (UniProt Q9UQR0) | -0.258
SNX6 (peptide sequence: NLVELAELELKHAK, peptide start residue: 376) (UniProt Q9UNH7) | -0.37
XPO7 (peptide sequence: VENYPEVIR, peptide start residue: 349) (UniProt Q9UIA9) | 0.308
UBQLN2 (peptide sequence: NPEISHLLNNPDIMR, peptide start residue: 218) (UniProt Q9UHD9) | 0.0522
MKLN1 (peptide sequence: SLQEEEPCPR, peptide start residue: 575) (UniProt Q9UL63) | 0.7
UniProt Q9ULD9 (peptide sequence: GHSSTTAQSSQLK, peptide start residue: 978) | 0.785
UniProt Q9ULV0 (peptide sequence: KELEEER, peptide start residue: 755) | -0.51
EIF2B4 (peptide sequence: ASPSTAGETPSGVK, peptide start residue: 129) (UniProt Q9UI10) | -0.0669
